{"source": "PubChem BioAssay AID493014", "about": "(National Center for Advancing Translational Sciences (NCATS), 2011)", "assay": "qHTS Assay to Find Inhibitors of Chronic Active B-Cell Receptor Signaling", "conditions": "ABC-DLBCL IkBa-CBG/CBR reporter, luminescence ratio (green luciferase fused to IkBa over red control in TMD8 lymphoma cells), 4 h", "in_short": "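Cell line TMD8 (human ABC DLBCL), stably expressing tet-inducible CBG68-IkBa fusion and CBR; IMDM/0.5% FBS; cpd up to 46 uM; dox induction, 4 h, 37C/5% CO2; dual luminescence; green/red ratio; MG132 control.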", "key": {"[1]": {"conditions": "measured here: CBR red luminescence, cell number"}, "[2]": {"conditions": "measured here: IkBa-CBG green luminescence"}}, "note": "The list shows a part of the results. The main result of the screen is listed elsewhere. These columns were measured beside it and carry no call. The list favours compounds with an active or inconclusive main result. The note in brackets gives the kind of curve behind each potency; many fits are weak."}
{"smiles": "Cc1ccc(S(=O)(=O)N(Cc2ccc(Cl)cc2)c2ccccc2C(=O)NCc2cccnc2)cc1", "values": [{"measurement": "AC50", "setting": "[1]", "value": "29.1 µM [falling, single point]"}, {"measurement": "AC50", "setting": "[2]", "value": "32.6 µM [rising, partial curve, poor fit]"}]}
{"smiles": "COc1ccc(-c2nc3cc([N+](=O)[O-])ccc3o2)cc1OC", "values": [{"measurement": "AC50", "setting": "[1]", "value": "0.112 µM [rising, full curve, poor fit]"}]}
{"smiles": "O=C(c1ccc(-c2ccccc2)cc1)N1CCC(C(=O)N2CCCC2)CC1", "values": [{"measurement": "AC50", "setting": "[1]", "value": "23.1 µM [rising, partial curve, poor fit]"}]}
{"smiles": "Cc1ccc(NC(=O)COC(=O)c2ccc(F)cc2Cl)c(Br)c1", "values": [{"measurement": "AC50", "setting": "[1]", "value": "14.1 µM [rising, partial curve, poor fit]"}]}
{"smiles": "Cc1c(CN(C)C(=O)/C=C/c2ccc([N+](=O)[O-])cc2)cnn1C", "values": [{"measurement": "AC50", "setting": "[1]", "value": "6.51 µM [rising, partial curve, poor fit]"}]}
{"smiles": "Cc1ccc(C(=O)NCC(=O)OCCOc2ccccc2Cl)cc1", "values": [{"measurement": "AC50", "setting": "[1]", "value": "5.17 µM [rising, full curve]"}]}
{"smiles": "O=C(c1cccnc1)C1Cc2ccccc2C1=O", "note": "(stereo not drawn)", "values": [{"measurement": "AC50", "setting": "[1]", "value": "3.16 µM [rising, partial curve, poor fit]"}]}
{"smiles": "COc1ccc2sc(NC(=O)CC(C)C)nc2c1", "values": [{"measurement": "AC50", "setting": "[1]", "value": "14.1 µM [falling, partial curve]"}]}
{"smiles": "COc1cccc(-c2nc(N3CCN(Cc4ccccc4)CC3)c3ccccc3n2)c1O", "values": [{"measurement": "AC50", "setting": "[1]", "value": "35.5 µM [falling, partial curve, poor fit]"}]}
{"smiles": "Cc1c(C(=O)NCC2COc3ccccc3O2)oc2ccc(S(=O)(=O)N(C)C3CCCCC3)cc12", "note": "(stereo not drawn)", "values": [{"measurement": "AC50", "setting": "[1]", "value": "29.1 µM [rising, single point]"}]}
{"smiles": "CC(C)NC(=O)c1ccc(OC2CSC2)cc1", "values": [{"measurement": "AC50", "setting": "[1]", "value": "6.31 µM [rising, single point]"}]}
{"smiles": "Cc1ccc(/C=C/C(=O)N2CCc3ccccc32)o1", "values": [{"measurement": "AC50", "setting": "[1]", "value": "0.231 µM [rising, full curve, poor fit]"}]}
{"smiles": "CCn1c(=O)cc(SCC(=O)N2CCN(c3ccccn3)CC2)c2ccccc21", "values": [{"measurement": "AC50", "setting": "[2]", "value": "20.6 µM [falling, partial curve, poor fit]"}]}
{"smiles": "COc1cccc(NC(=O)CN(C)C(=O)c2cn(-c3ccccc3)nc2-c2cccnc2)c1", "values": [{"measurement": "AC50", "setting": "[1]", "value": "0.00461 µM [rising, full curve, poor fit]"}]}
{"smiles": "CCn1c(O)c(/C=C2\\C=Nc3ccccc32)sc1=O", "values": [{"measurement": "AC50", "setting": "[1]", "value": "1.78 µM [rising, full curve]"}]}
{"smiles": "O=C(O)c1ccc(N2C(=O)/C(=C/C=C/c3ccccc3)SC2=S)cc1", "values": [{"measurement": "AC50", "setting": "[1]", "value": "3.16 µM [falling, full curve]"}]}
{"smiles": "Cc1cc(CNCc2cn(C)nc2-c2ccc(Oc3ccccc3)cc2)on1", "values": [{"measurement": "AC50", "setting": "[1]", "value": "15.8 µM [rising, partial curve, poor fit]"}]}
